According to US8076285B2 (Aicuris GmbH & Co. KG, priority 2006, dated 2011):

Assay: general procedure: Fmoc solid-phase peptide synthesis; 2-chlorotrityl chloride resin (Iris Biotech), 0.85 mmol/g; TBTU/DIEA
[1] = late stage modification step, trifluoroacetate
[2] = cyclisation step, trifluoroacetate

[(3R)-N^2-(Benzyloxycarbonyl)-3-amino-L-phenylalanyl]-L-threonyl-L-leucyl-D-arginyl-L-isoleucyl-L-allothreonyl-glycyl-L-seryl C^1.9-N^3.1-lactam trifluoroacetate
cyclisation yield (cyclisation step, from 360A, trifluoroacetate): 73% of theory

[(3R)-N^2-(Benzyloxycarbonyl)-3-amino-L-phenylalanyl]-L-threonyl-L-leucyl-D-arginyl-L-isoleucyl-L-allothreonyl-glycyl-L-seryl-L-serine bistrifluoroacetate
step yield [1]: 99% of theory

[(3R)-N^2-(Benzyloxycarbonyl)-3-amino-L-phenylalanyl]-[(3R)-3-hydroxy-L-leucyl]-(3-trimethylsilyl-L-alanyl)-D-arginyl-L-isoleucyl-L-allothreonyl-glycyl-L-seryl-L-serine C^1.9-N^3.1-lactam trifluoroacetate
cyclisation yield (cyclisation step, from 362A, trifluoroacetate): 98% of theory

[(3R)-N^2-(Benzyloxycarbonyl)-3-amino-L-phenylalanyl]-[(3R)-3-hydroxy-L-leucyl]-(3-trimethylsilyl-L-alanyl)-D-arginyl-L-isoleucyl-L-allothreonyl-glycyl-L-seryl-L-serine bistrifluoroacetate
step yield [1]: 97% of theory

[(3R)-N^2-(Benzyloxycarbonyl)-3-amino-L-phenylalanyl]-[(3R)-3-hydroxy-L-leucyl]-L-isoleucyl-D-arginyl-L-isoleucyl-L-allothreonyl-glycyl-L-seryl-L-serine C^1.9-N^3.1-lactam trifluoroacetate
cyclisation yield (cyclisation step, from 375A, trifluoroacetate): 62% of theory | final purity (method not given) [2]: 95% pure

[(3R)-N^2-(Benzyloxycarbonyl)-3-amino-L-phenylalanyl]-[(3R)-3-hydroxy-L-leucyl]-L-isoleucyl-D-arginyl-L-isoleucyl-L-allothreonyl-glycyl-L-seryl-L-serine bistrifluoroacetate
step yield [1]: 96% of theory

[(3R)-N^2-(Benzyloxycarbonyl)-3-amino-L-phenylalanyl]-[(3R)-3-hydroxy-L-leucyl]-L-leucyl-D-arginyl-L-isoleucyl-L-allothreonyl-D-alanyl-[(3S)-3-hydroxy-L-asparaginyl]-L-serine C^1.9-N^3.1-lactam trifluoroacetate
cyclisation yield [2]: 48% of theory | final purity (method not given) [2]: approx. 34% pure

[(3R)-N^2-(Benzyloxycarbonyl)-3-amino-L-phenylalanyl]-[(3R)-3-hydroxy-L-leucyl]-L-leucyl-D-arginyl-L-isoleucyl-L-allothreonyl-D-seryl-L-seryl-L-serine C^1.9-N^3.1-lactam trifluoroacetate
cyclisation yield (cyclisation step, from 373A, trifluoroacetate): 93% of theory

[(3R)-N^2-(Benzyloxycarbonyl)-3-amino-L-phenylalanyl]-[(3R)-3-hydroxy-L-leucyl]-L-leucyl-D-arginyl-L-isoleucyl-L-allothreonyl-glycyl-L-alanyl-L-serine C^1.9-N^3.1-lactam trifluoroacetate
cyclisation yield [2]: 77% of theory

[(3R)-N^2-(Benzyloxycarbonyl)-3-amino-L-phenylalanyl]-[(3R)-3-hydroxy-L-leucyl]-L-leucyl-D-arginyl-L-isoleucyl-L-allothreonyl-glycyl-L-allothreonyl-L-aserinate C^1.9-N^3.1-lactam trifluoroacetate
crude purity (method not given) [2]: 75% pure | cyclisation yield [2]: 86% of theory

[(3R)-N^2-(Benzyloxycarbonyl)-3-amino-L-phenylalanyl]-[(3R)-3-hydroxy-L-leucyl]-L-leucyl-D-arginyl-L-isoleucyl-L-allothreonyl-glycyl-L-asparaginyl-L-serine C^1.9-N^3.1-lactam trifluoroacetate
cyclisation yield [2]: 75% of theory

[(3R)-N^2-(Benzyloxycarbonyl)-3-amino-L-phenylalanyl]-[(3R)-3-hydroxy-L-leucyl]-L-leucyl-D-arginyl-L-isoleucyl-L-allothreonyl-glycyl-L-seryl-L-serine C^1.9-N^3.1-lactam Trifluoroacetate
cyclisation yield [2]: 43% of theory

[(3R)-N^2-(Benzyloxycarbonyl)-3-amino-L-phenylalanyl]-[(3R)-3-hydroxy-L-leucyl]-L-leucyl-D-arginyl-L-isoleucyl-L-allothreonyl-glycyl-L-threonyl-L-serine C^1.9-N^3.1-lactam trifluoroacetate
cyclisation yield [2]: 65% of theory

[(3R)-N^2-(Benzyloxycarbonyl)-3-amino-L-phenylalanyl]-[(3R)-3-hydroxy-L-leucyl]-L-leucyl-D-arginyl-L-isoleucyl-L-allothreonyl-glycyl-[3-(3-pyridyl)-L-alanyl]-L-serine C^1.9-N^3.1-lactam trifluoroacetate
cyclisation yield [2]: 51% of theory

[(3R)-N^2-(Benzyloxycarbonyl)-3-amino-L-phenylalanyl]-[(3R)-3-hydroxy-L-leucyl]-L-leucyl-D-arginyl-L-isoleucyl-L-allothreonyl-glycyl-[(2S)-2-amino-3-(9H-fluoren-9-ylmethoxycarbonyl)aminobutyryl]-L-serine C^1.9-N^3.1-lactam trifluoroacetate
cyclisation yield (cyclisation step, from 359A, trifluoroacetate): 67% of theory

[(3R)-N^2-(Benzyloxycarbonyl)-3-amino-L-phenylalanyl]-[(3R)-3-hydroxy-L-leucyl]-L-leucyl-D-arginyl-L-isoleucyl-L-allothreonyl-glycyl-[(3S)-3-hydroxy-L-asparaginyl]-L-alanine C^1.9-N^3.1-lactam trifluoroacetate
cyclisation yield [2]: 93% of theory

[(3R)-N^2-(Benzyloxycarbonyl)-3-amino-L-phenylalanyl]-[(3R)-3-hydroxy-L-leucyl]-L-leucyl-D-arginyl-L-isoleucyl-L-allothreonyl-glycyl-[(3S)-3-hydroxy-L-asparaginyl]-L-alanine bistrifluoroacetate
step yield (late stage modification step, bistrifluoroacetate): 99% of theory

[(3R)-N^2-(Benzyloxycarbonyl)-3-amino-L-phenylalanyl]-[(3R)-3-hydroxy-L-leucyl]-L-leucyl-D-arginyl-L-isoleucyl-L-allothreonyl-glycyl-[(3S)-3-hydroxy-L-asparaginyl]-L-serine C^1.9-N^3.1-lactam trifluoroacetate
cyclisation yield [2]: 73% of theory

[(3R)-N^2-(Benzyloxycarbonyl)-3-amino-L-phenylalanyl]-[(3R)-3-hydroxy-L-leucyl]-L-leucyl-D-arginyl-L-isoleucyl-L-allothreonyl-glycyl-glycyl-L-serine C^1.9-N^3.1-lactam trifluoroacetate
cyclisation yield (cyclisation step, from 380A, trifluoroacetate): 38% of theory | final purity (method not given) [2]: 25% pure

[(3R)-N^2-(Benzyloxycarbonyl)-3-amino-L-phenylalanyl]-[(3R)-3-hydroxy-L-leucyl]-L-leucyl-D-arginyl-L-isoleucyl-L-leucyl-glycyl-L-seryl-L-serine C^1.9-N^3.1-lactam trifluoroacetate
cyclisation yield (cyclisation step, from 377A, trifluoroacetate): 97% of theory

[(3R)-N^2-(Benzyloxycarbonyl)-3-amino-L-phenylalanyl]-[(3R)-3-hydroxy-L-leucyl]-L-leucyl-D-arginyl-L-isoleucyl-L-seryl-glycyl-L-seryl-L-serine C^1.9-N^3.1-lactam trifluoroacetate
cyclisation yield (cyclisation step, from 363A, trifluoroacetate): 81% of theory

[(3R)-N^2-(Benzyloxycarbonyl)-3-amino-L-phenylalanyl]-[(3R)-3-hydroxy-L-leucyl]-L-leucyl-D-arginyl-L-isoleucyl-L-seryl-glycyl-L-seryl-L-serine bistrifluoroacetate
crude purity (method not given) [1]: 94% pure
